Test results taken from patent US10882852B1, “3-vinylquinolines as cancer cells inhibitors” (King Abdulaziz University, priority 2020, dated 2021).
Some results were stated once for a whole list of compounds, not compound by compound.

System: MCF-7, HL-60, HCT-116 and HeLa cancer cells
Experiment: MTT antiproliferative activity over the panel of four cancer cell lines
Assay type: cell-based, human
Conditions: versus 9f
Procedure: All the human tumour cell lines MCF-7, HCT-116, HL-60 and HeLa were cultured in Dulbecco's Modified Eagle's Medium (DMEM) with 10% fetal bovine serum, 2 mM L-glutamine and 100 µg/mL penicillin/streptomycin. Cells were maintained at 37° C. in 5% CO2 in a humidified incubator. All cells were sub-cultured 3 times/week by trypsinization using TrypLE Express (1×).
The quinoline compounds were evaluated for antiproliferative effect using the MTT viability assay of four cancer cell lines (MCF-7, HCT-116, HL-60 and HeLa) and normal breast cells MCF-10A to calculate the relative IC50 values for each compound. Cells were seeded in triplicate in 96-well plates at a density of 10×10^3 cells/ml in a total volume of 200 μl per well. 0.1% of DMSO was used as a vehicle control. […] At this point solubilisation was begun through the addition of […] DMSO and the cells maintained at room temperature in darkness for 20 min to ensure thorough colour diffusion before reading the absorbance. Plates were incubated for 72 hours at 37° C.+5% CO2, The MTT (5 mg/mL in PBS) was added and incubated for another 4 h, the optical density was detected with a microplate reader at 570 nm. Results were expressed as percentage viability relative to vehicle control (100%). […]

| Compound | fold loss in potency compared to 9f |
| --- | --- |
| COc1cc(C2=NC(=Cc3cc4ccc(OC(C)C)cc4nc3OC)C(=O)N2)cc(OC)c1OC [Compound 9g, 5-((7-Isopropoxy-2-methoxyquinolin-3-yl)methylene)-2-(3,4,5-trimethoxyphenyl)-3,5-dihydro-4H-imidazol-4-one] | 14-125 fold |
| COc1cc(C2=NC(=Cc3cc4ccc(OCc5ccccc5)cc4nc3OC)C(=O)N2)cc(OC)c1OC [Compound 9h, 5-[(7-(Benzyloxy)-2-methoxyquinolin-3-yl)methylene]-2-(3,4,5-trimethoxyphenyl)-3,5-dihydro-4H-imidazol-4-one] | 14-125 fold |
